Results as given in paper PMC8833953.

Amino acid sequences for entries named in this document (tags omitted). A change or cut given only in a name is not applied to a line headed by its entry.
UniProt P67775: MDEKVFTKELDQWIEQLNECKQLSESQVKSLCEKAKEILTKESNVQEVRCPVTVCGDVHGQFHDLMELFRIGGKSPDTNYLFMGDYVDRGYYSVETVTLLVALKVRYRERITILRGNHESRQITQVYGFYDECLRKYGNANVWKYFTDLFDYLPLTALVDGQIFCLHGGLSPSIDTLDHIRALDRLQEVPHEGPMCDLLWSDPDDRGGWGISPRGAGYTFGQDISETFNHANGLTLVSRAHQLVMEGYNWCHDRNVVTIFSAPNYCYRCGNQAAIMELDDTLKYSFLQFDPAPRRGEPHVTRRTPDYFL
UniProt Q01105: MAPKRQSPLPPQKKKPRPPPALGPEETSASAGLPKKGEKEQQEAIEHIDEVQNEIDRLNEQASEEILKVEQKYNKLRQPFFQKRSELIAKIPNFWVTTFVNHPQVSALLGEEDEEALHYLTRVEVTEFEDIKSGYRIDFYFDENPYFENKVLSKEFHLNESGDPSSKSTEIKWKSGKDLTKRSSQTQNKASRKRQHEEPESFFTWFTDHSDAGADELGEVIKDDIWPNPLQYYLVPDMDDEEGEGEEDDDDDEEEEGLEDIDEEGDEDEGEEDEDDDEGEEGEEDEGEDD

Biological target: catalytic unit of PP2A (PP2Ac) (human (endogenous in OPM-2 and MM.1S)) (UniProt P67775)
Assay: co-IP; 500 ug lysate (50 mM HEPES pH 7.5, 150 mM NaCl, 1% Triton X-100, 10% glycerol) incubated with anti-PP2A (Millipore 05-421) or control IgG overnight at 4 C, protein A/G magnetic beads, blotted for I2PP2A and PP2Ac; OPM-2 ishGFI1 cells with or without dox (GFI1 KD); MM.1S EV and GFI1 o/e cells untreated or treated with THI (10 uM, 2 h) or SK1-I (5 uM, 2 h)

Q: I2PP2A/SET (from UniProt Q01105 1-290) was tested. Which binding did it give?
A: The binding was “binds”.

Results are given in words; binding and its absence hold for the method and conditions named. Binding seen in cells or lysates may run through a third protein. A result given as binding can be weak or reduced; the word gives no strength.
